Drawing on PubChem BioAssay AID1347426 (Functional Genomics Laboratory (NCATS/FGL), 2020), this text covers median seed-adjusted z-score for 108 sequences.

Out of some 31,000 sequences screened, about 1,400 (4.5%) were called active.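 How the source made its calls: active means median seed-adjusted z-score above 1 or below -1; inactive means the rest.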 This is one part of the list.

The assay can be described thus: Novel Modifiers of Survival Motor Neuron (SMN) Protein: Gene Identification via Genome-wide siRNA Screen.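 Further: luminescence tracks full-length SMN protein made from the SMN2 reporter.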 The following applies: HEK293T SMN2-luciferase reporter, siRNA knockdown, 72 h; actives lie on both sides. In a few lines:
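HEK293T cells stably carrying an SMN2 promoter/splicing cassette–luciferase reporter were reverse-transfected with 1 pmol siRNA per well (druggable-genome library, 3 siRNAs per gene) and grown 72 h at 37 °C. Luminescence, normalized to negative-control siRNA and log10-transformed, was scored as MAD.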
(A reporter such as luciferase makes a cellular process visible.)
Regarding GCUAGGAGAUGUACGUGUATT against PDE7A, the median seed-adjusted z-score is inactive: 0.861.

Turning to CCGGAGCUAUGACAACAUUTT against LGI2, the median seed-adjusted z-score was inactive: 0.

As for GGAUCCUUCUAUACGCAUATT against SLC4A7, the median seed-adjusted z-score is inactive: 0.

On to GCAGUUUAAUGGAUUAAGUTT against NSUN6, for which the median seed-adjusted z-score is inactive: 0.428.

Turning to GAAAGAAAUCAACUGAUGATT against FBP1, the median seed-adjusted z-score was inactive: -0.221.

On to CCAUUUAGGUAAGGUAGUATT against PAM, for which the median seed-adjusted z-score was inactive: 0.

Take GACUGAACAUGCACAUGAATT against APP: the median seed-adjusted z-score was inactive: 0.0204.

With UCAUGAUGGUGGACAGUUATT against SPRYD3, the median seed-adjusted z-score was inactive: 0.207.

Turning to CCAGGGAAAUGUGAUUGUUTT against NHLRC1, the median seed-adjusted z-score is inactive: -0.582.

As for AGUAAUAGUUCAAACCUUUTT against ZNF664, the median seed-adjusted z-score was active: 1.08.

For GGGACCUACAUGUUACUAATT against AGXT2, the median seed-adjusted z-score was inactive: 0.17.

For CCAGAUCGCUACUAUAUUATT against STK24, the median seed-adjusted z-score was inactive: 0.0531.

In the case of GCAUCGCAAUCAUCGUGGATT against PRPSAP1, the median seed-adjusted z-score is inactive: 0.224.

For CCUUUGAGAUGGAAGCCUATT against ACY3, the median seed-adjusted z-score was inactive: 0.568.

In the case of CAGUAGCCGUGUUAACGAATT against MERTK, the median seed-adjusted z-score is inactive: 0.369.

On to CGAUCGUGGUGUGCUAAAATT against NMT1, for which the median seed-adjusted z-score is inactive: 0.18.

With CCAGAGAUCUUGAACACCATT against TRIB2, the median seed-adjusted z-score is inactive: 0.

CCGUGAAAAAGUAUCAUGATT against PDGFD: the median seed-adjusted z-score is inactive: 0.366.

On to GGAUGAGUUUAGAAACUUUTT against PRKCH, for which the median seed-adjusted z-score is inactive: 0.761.

As to GAAUAGUGAUAGGAGUUUUTT against TAAR2, the median seed-adjusted z-score is inactive: 0.137.

GGACAGCAUGCGAACCUAUTT against TJP3: the median seed-adjusted z-score is inactive: -0.183.

With CAGUAUCCACAGAUCCUGATT against COPB2, the median seed-adjusted z-score is inactive: -0.61.

UGGUGUUUUGGGUUUCAAATT against ERAS: the median seed-adjusted z-score was inactive: 0.289.

As to GAAGGGUUAUCGUCGGGAATT against SLC6A6, the median seed-adjusted z-score is inactive: 0.0448.

On to CCUGCGUCGUGGAGAACAATT against FGFR3, for which the median seed-adjusted z-score is inactive: -0.133.

As to GGAAGCUAUUGGACAUGCATT against PSMA4, the median seed-adjusted z-score is inactive: 0.

In the case of CCCUCACCGUGCAUGAGAATT against ZNF74, the median seed-adjusted z-score was active: 1.17.

Consider GUUUGACCGUCUGAAGAAATT against 6-Sep, for which the median seed-adjusted z-score was inactive: -0.732.

In the case of CAGUCGGAGCUAAUGGUGATT against AGER, the median seed-adjusted z-score is inactive: 0.506.

As for AGUUCUCGGAGGUGCUUAATT against CKB, the median seed-adjusted z-score is inactive: -0.236.

Turning to GCAGAAUACUUCUAUGAAUTT against WIF1, the median seed-adjusted z-score was inactive: -0.521.

Consider GCAUUAACCUGGGAGCGAUTT against SLC15A4, for which the median seed-adjusted z-score was inactive: -0.29.

For the sequence GGCCUCCUAUUCUAAGAAATT against CETP, the median seed-adjusted z-score is inactive: 0.

Take UCUCAUACCUUAUUAAACATT against ZNF100: the median seed-adjusted z-score is inactive: -0.209.

Consider CCAUGAGAAUGACACGAUATT against VPS26B, for which the median seed-adjusted z-score was inactive: -0.038.

As for GGAUGACAGGUACCAAUGUTT against GLYCTK, the median seed-adjusted z-score is inactive: 0.0328.

Regarding CACCGGAGGUUUAUCACAATT against AMDHD2, the median seed-adjusted z-score is inactive: -0.0707.

Turning to CGACCAUCCUAACAUCAUUTT against EPHB1, the median seed-adjusted z-score is inactive: -0.0232.

As to GGAGAGUUGAUGAACCAGATT against GALK2, the median seed-adjusted z-score was inactive: 0.

With GAGUGGAUGUUCAACCGGATT against PCK1, the median seed-adjusted z-score is inactive: -0.401.

For GAAAGAUCCCUAUGGAAAATT against CAMK2G, the median seed-adjusted z-score was inactive: -0.107.

In the case of GCAGAUUACUGUGCAAGUATT against SDR16C5, the median seed-adjusted z-score is inactive: -0.0558.

On to CUGCCUUACUAACUCCUUATT against ALPL, for which the median seed-adjusted z-score is inactive: -0.229.

Regarding GGUCUUAGAUGGUACGCGUTT against ADAMTSL1, the median seed-adjusted z-score is inactive: -0.107.

CACCAACGGCUAUGAGGAATT against AEBP1: the median seed-adjusted z-score is inactive: -0.0536.

For the sequence CGUCUAUUCAGGAAACCUATT against PGLYRP2, the median seed-adjusted z-score was inactive: -0.697.

Consider GGUCAUUGUGAAAAGUAGATT against GCLM, for which the median seed-adjusted z-score was inactive: 0.0509.

As to UCGUCUUUGUGCUCAAAGATT against DNAJB5, the median seed-adjusted z-score is inactive: -0.444.

As for GCAAUCUAGUCAACGGAGATT against EEA1, the median seed-adjusted z-score was inactive: 0.0278.

Regarding GGAUAGAAAGUCCAACGGATT against ATMIN, the median seed-adjusted z-score is inactive: -0.55.

For the sequence CGCAGAACCUGAGAGUCUATT against DMRT3, the median seed-adjusted z-score was inactive: 0.

As to CGUCUAGAGUCGUUGAGAATT against NDC80, the median seed-adjusted z-score was inactive: 0.0855.

For the sequence GCUGAUUCUUCGAGGCCGATT against SIGIRR, the median seed-adjusted z-score is inactive: 0.0269.

Turning to CGAAUUUAGAUGCUGGUCATT against NRL, the median seed-adjusted z-score is inactive: -0.352.

Consider GGAUGCAGAACGACGUGAATT against SLC25A10, for which the median seed-adjusted z-score was inactive: -0.571.

Regarding GGUCUUCAAUCAAAAUCCATT against ZNF610, the median seed-adjusted z-score is inactive: 0.432.

In the case of AGAAUGCGCUGAACGGUAUTT against RBPMS2, the median seed-adjusted z-score is inactive: -0.485.

With AGAAACAUCCGGAACCCUUTT against SIRT2, the median seed-adjusted z-score is inactive: 0.727.

CCAGUUCCUAUAUAAGACATT against ZNF563: the median seed-adjusted z-score is inactive: 0.00283.

Regarding GGAGGAUGGACUUAUCAAATT against CRMP1, the median seed-adjusted z-score is inactive: -0.354.

Take GCAACUACAUCAAGGUGCATT against GNAT1: the median seed-adjusted z-score is inactive: -0.188.

In the case of GAACAACUACCUUCGGGAATT against SPINT1, the median seed-adjusted z-score is inactive: 0.0172.

For the sequence AAAACUUACGAACAACAAATT against TBR1, the median seed-adjusted z-score was inactive: -0.388.

On to CCUCUUGCCUUGUAUACAATT against RAET1G, for which the median seed-adjusted z-score was inactive: -0.0655.

For CCAACUCAAACAACGAUAATT against RAVER2, the median seed-adjusted z-score is inactive: -0.258.

Consider CACCUACAUUAAUGCUAAUTT against PTPRR, for which the median seed-adjusted z-score is inactive: 0.502.

GCAGUUAUGCUUCAAGUCATT against NFRKB: the median seed-adjusted z-score was inactive: 0.787.

For GGGCCUAACAUCAUCCUCATT against CRTC2, the median seed-adjusted z-score was inactive: -0.691.

CCAUCGGCCGGAAAAGAAATT against AKR1C2: the median seed-adjusted z-score was inactive: -0.109.

Turning to CAAACCUAUACAUCUCAAATT against RBMS3, the median seed-adjusted z-score was inactive: 0.0976.

Regarding CAUGAUCAUCCGUAAAGUATT against RBPJL, the median seed-adjusted z-score is inactive: 0.373.

CAAACUCCAACUUAUGAAATT against CD34: the median seed-adjusted z-score is inactive: -0.0898.

With GCCUUAAGCUGACUUAGAATT against AKR7A2, the median seed-adjusted z-score was inactive: 0.192.

On to GAAGCUACAGACACCAAUATT against ENTPD4, for which the median seed-adjusted z-score is inactive: 0.324.

For the sequence CGAUGACUUCUACACCUUUTT against ADCY7, the median seed-adjusted z-score is inactive: -0.0202.

For CAAGACUACGAUUACCUCATT against CDH4, the median seed-adjusted z-score was inactive: 0.

Consider AAAGAAUCAUUGUGAAAGATT against PARVA, for which the median seed-adjusted z-score is inactive: 0.0852.

For the sequence CGAACAACUAAAUACCACATT against PRMT2, the median seed-adjusted z-score was inactive: 0.0895.

GCAUUAGUGAGGAUAGGCATT against SLC25A30: the median seed-adjusted z-score is inactive: 0.

With GCAUCAGUAUCUGACCUUUTT against UBE2N, the median seed-adjusted z-score was inactive: 0.995.

AAGCACAACUUGACCGUGATT against USP20: the median seed-adjusted z-score was inactive: -0.369.

Consider AGACUCAACCAGUACGUAATT against LYN, for which the median seed-adjusted z-score was inactive: -0.178.

On to GCUCAUCGCUCAGAAGAAATT against SF4, for which the median seed-adjusted z-score was inactive: 0.498.

On to CAUACCUUAUGAAACAUAUTT against ZNF384, for which the median seed-adjusted z-score was inactive: -0.132.

For the sequence GGAAUACAGGAACUUCUAATT against UBE2I, the median seed-adjusted z-score is inactive: 0.717.

GCUAAAUGCCCUGAACAAATT against AKR1A1: the median seed-adjusted z-score is inactive: -0.255.

Consider AGAAGAUCCUGUUCCAAGATT against TAOK2, for which the median seed-adjusted z-score was inactive: 0.28.

Consider GAUCCAUCCUUCUCACGUUTT against ATXN2, for which the median seed-adjusted z-score is inactive: 0.

On to AGAUGUACGAUUAUAGUUUTT against CSNK2A1, for which the median seed-adjusted z-score is inactive: -0.408.

CCACCUAUAAGAUAGAAGATT against MTTP: the median seed-adjusted z-score is inactive: 0.

AGAUGACCCAGAAAUAUGATT against PVRL4: the median seed-adjusted z-score was inactive: -0.266.

GCACAGUCCCAAUAACAGUTT against DLX3: the median seed-adjusted z-score is inactive: 0.

For GGUCGGAGCAAGGAGAGAATT against CD300LB, the median seed-adjusted z-score was inactive: -0.466.

Turning to GGGAAGAAAUUACGAUGGATT against TOR3A, the median seed-adjusted z-score is inactive: 0.225.

For GAAGACUUCCAUAAACGAATT against TPX2, the median seed-adjusted z-score is inactive: -0.564.

Regarding CCAGCUCUGGAAUUAGAUATT against NRBP1, the median seed-adjusted z-score was active: -1.13.

For the sequence GUAUACUCCAGAACAAGUATT against ALDOB, the median seed-adjusted z-score was active: -1.34.

In the case of GCAUCCACAUUGACCAGAUTT against BAI1, the median seed-adjusted z-score was inactive: -0.663.

On to GCAACAUAUGGGAAUUAGATT against MEIS1, for which the median seed-adjusted z-score is inactive: 0.

For the sequence GCUUUGGAAGGGUUUGAUATT against DCT, the median seed-adjusted z-score was inactive: -0.184.

As to GUCUAAAUCUCGUUCCAAATT against SRrp35, the median seed-adjusted z-score is inactive: -0.0574.

Turning to CAUAAAAUGUGAGACUUCUTT against PPFIA4, the median seed-adjusted z-score was inactive: 0.0399.

For GGACCCGGGCUUUAGCUAUTT against DVL1, the median seed-adjusted z-score is inactive: -0.814.

Turning to GGAUGUAAUUCACACGGAUTT against PNLIP, the median seed-adjusted z-score is inactive: 0.385.

GAAUUCAGAUGCGAGUAAATT against RFX6: the median seed-adjusted z-score was inactive: 0.119.

With GAAGAGGACUGAUAAUGGATT against MLLT6, the median seed-adjusted z-score is inactive: -0.281.

Regarding CCGUGUACGUGUUUGGUCATT against OTUD7A, the median seed-adjusted z-score is inactive: -0.53.

As for GGAACUUGCAUCAACAAUATT against AGPAT9, the median seed-adjusted z-score is inactive: 0.
